Results reported in US20130034559A1.

The chains behind the UniProt entries cited, without tags or fusion partners. Where a name states a change or a piece, a line headed by the entry shows the natural chain unless it says otherwise.
UniProt Q5ZPR3: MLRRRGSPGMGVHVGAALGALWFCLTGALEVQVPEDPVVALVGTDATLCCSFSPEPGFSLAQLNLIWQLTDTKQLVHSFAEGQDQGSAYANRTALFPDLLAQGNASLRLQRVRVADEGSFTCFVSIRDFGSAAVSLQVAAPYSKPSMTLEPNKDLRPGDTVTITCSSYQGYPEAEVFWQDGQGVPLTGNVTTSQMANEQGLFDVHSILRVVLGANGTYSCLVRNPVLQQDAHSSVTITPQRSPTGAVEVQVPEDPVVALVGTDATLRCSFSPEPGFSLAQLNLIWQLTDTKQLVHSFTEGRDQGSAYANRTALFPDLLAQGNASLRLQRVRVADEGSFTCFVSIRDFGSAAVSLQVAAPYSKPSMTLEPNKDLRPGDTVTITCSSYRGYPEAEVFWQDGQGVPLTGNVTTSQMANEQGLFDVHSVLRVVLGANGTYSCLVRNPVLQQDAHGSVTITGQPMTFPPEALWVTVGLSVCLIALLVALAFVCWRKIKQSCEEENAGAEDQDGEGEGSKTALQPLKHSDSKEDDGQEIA

How the values were obtained:
[1] = biological target: extracellular domain of human B7-H3 (R&D Systems, 1027-B3) (human) (UniProt Q5ZPR3); test: ELISA, biotinylated IgG1-TM on coated ECD
[2] = biological target: recombinant monomeric cynomologus B7-H1 FlagHis10 extracellular domain (cynomologus); test: SPR (BIAcore T100)

binding [1] | binding [2] | Binder
no binding (tested: 100 nM) |  | 2.9D10 in the IgG1-TM format (antibody, V domains shown) VH: EVQLVESGGGLVQPGGSLRLSCAASGFTFSSYWMSWVRQAPGKGLEWVANIKQDGGEQYYVDSVKGRFTISRDNAKNSLYLQMNSLRAEDTAVYYCARDWNYGYYDMDVWGQGTTVTVSS VL: EIVLTQSPGTLSLSPGERATLSCRASQSVSSNYLAWFQQKPGQAPRLLIFGTSSRATGIPDRFSGSGSGTDFTLTISRLEPEDFAVYYCQQYGSSIFTFGPGTKVDIK
no binding (tested: 100 nM) | binds | 2.7A4OPT (antibody, V domains shown) VH: EVQLVESGGGLVKPGGSLRLSCAASGFTFSTYSMNWVRQAPGKGLEWVSSISSSGDYIYYADSVKGRFTISRDNAKNSLYLQMNSLRAEDTAVYYCARDLVTSMVAFDYWGQGTLVTVSS VL: SYELTQPPSVSVSPGQTARITCSGDALPQKYVFWYQQKSGQAPVLVIYEDSKRPSGIPERFSGSSSGTMATLTISGAQVEDEADYYCYSTDRSGNHRVFGGGTKLTVL

No constants are given. Whether binding was seen depends on the method and setting. For part of these data: A result given as binding can be weak or reduced; the word gives no strength.
